Experimental findings from the supplement of paper PMC10849652 are described below.

By UniProt entry, the sequences of proteins in these tests, tags left out. Where a name states a change or a piece, a line headed by the entry shows the natural chain unless it says otherwise.
UniProt Q9H6X4: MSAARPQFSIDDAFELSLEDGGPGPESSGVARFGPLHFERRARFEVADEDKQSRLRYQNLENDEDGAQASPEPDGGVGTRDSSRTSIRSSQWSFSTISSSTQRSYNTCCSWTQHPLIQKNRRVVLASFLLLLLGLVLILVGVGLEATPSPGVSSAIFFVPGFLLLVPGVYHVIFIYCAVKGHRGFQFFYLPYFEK
UniProt Q5SWH9: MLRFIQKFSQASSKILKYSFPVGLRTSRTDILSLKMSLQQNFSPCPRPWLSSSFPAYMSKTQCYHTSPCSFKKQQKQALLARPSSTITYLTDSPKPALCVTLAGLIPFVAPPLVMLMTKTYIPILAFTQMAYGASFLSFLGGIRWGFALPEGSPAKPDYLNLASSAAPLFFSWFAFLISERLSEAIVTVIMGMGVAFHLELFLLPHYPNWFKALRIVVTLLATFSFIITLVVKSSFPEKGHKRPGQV
UniProt Q53S58: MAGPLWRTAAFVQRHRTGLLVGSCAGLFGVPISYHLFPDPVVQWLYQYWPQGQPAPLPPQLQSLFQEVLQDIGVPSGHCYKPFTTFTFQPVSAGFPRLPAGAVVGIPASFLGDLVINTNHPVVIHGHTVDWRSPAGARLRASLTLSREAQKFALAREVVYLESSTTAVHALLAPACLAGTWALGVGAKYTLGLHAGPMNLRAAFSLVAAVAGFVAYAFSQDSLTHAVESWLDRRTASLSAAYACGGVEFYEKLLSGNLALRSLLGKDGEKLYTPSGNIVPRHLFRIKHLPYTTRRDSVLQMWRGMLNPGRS
UniProt Q96I45: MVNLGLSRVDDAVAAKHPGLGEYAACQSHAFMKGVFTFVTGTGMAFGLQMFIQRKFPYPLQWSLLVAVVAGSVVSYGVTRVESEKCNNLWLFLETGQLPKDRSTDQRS
UniProt O94886: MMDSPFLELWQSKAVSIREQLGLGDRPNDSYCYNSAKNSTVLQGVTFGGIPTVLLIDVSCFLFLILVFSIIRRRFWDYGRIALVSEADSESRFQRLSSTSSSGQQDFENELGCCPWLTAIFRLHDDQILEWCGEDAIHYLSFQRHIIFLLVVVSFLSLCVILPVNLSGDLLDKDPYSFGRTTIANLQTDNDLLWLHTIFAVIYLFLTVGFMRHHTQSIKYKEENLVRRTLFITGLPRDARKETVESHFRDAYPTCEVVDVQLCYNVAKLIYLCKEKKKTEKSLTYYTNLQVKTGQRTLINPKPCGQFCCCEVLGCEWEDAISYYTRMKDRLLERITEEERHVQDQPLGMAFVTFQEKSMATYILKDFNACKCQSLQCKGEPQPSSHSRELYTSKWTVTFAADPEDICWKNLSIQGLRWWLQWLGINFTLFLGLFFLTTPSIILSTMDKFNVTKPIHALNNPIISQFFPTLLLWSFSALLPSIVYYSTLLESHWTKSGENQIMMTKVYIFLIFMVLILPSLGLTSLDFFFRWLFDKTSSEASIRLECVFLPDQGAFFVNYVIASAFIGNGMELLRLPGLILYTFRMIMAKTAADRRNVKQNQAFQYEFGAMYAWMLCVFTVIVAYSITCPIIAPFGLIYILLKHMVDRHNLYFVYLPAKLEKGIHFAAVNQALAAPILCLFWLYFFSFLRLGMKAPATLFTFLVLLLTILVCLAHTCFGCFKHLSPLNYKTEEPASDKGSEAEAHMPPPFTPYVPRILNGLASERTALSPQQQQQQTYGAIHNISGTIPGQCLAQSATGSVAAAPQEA
UniProt Q9BVK8: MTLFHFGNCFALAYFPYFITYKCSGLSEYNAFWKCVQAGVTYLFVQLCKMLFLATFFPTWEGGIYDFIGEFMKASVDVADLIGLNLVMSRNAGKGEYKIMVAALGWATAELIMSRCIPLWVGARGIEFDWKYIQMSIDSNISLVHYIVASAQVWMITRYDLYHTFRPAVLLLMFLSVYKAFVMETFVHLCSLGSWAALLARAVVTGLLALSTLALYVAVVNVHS
UniProt Q8TDI8: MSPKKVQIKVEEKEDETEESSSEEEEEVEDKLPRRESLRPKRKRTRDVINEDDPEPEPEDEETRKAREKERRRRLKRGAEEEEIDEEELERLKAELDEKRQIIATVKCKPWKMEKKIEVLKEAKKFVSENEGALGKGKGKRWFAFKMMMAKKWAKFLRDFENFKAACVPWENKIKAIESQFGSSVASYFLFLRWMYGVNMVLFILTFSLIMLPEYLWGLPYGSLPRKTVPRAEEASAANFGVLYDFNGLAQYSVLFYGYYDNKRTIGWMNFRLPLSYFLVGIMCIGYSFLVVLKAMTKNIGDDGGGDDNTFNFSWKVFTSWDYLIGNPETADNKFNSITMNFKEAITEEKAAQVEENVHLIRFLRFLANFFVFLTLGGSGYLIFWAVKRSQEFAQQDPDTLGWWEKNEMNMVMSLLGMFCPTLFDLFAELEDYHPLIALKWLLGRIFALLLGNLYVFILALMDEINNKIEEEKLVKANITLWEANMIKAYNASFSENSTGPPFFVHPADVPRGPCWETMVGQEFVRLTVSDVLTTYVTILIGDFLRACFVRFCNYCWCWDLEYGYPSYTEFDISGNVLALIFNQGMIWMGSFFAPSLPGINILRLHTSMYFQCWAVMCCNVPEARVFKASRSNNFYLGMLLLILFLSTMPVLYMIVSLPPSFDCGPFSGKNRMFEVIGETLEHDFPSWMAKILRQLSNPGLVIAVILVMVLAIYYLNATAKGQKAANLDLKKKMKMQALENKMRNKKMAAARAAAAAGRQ
UniProt A0PJW6: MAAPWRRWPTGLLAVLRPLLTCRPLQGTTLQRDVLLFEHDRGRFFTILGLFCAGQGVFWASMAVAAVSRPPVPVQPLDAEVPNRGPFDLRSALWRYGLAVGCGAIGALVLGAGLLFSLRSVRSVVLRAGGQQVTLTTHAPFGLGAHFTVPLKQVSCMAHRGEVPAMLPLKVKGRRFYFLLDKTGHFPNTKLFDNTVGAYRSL
UniProt Q9NWH2: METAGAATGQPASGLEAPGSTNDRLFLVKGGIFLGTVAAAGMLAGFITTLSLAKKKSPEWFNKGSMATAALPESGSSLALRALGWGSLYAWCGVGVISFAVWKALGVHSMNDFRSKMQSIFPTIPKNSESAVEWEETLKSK
UniProt O00220, whole entry, looked up: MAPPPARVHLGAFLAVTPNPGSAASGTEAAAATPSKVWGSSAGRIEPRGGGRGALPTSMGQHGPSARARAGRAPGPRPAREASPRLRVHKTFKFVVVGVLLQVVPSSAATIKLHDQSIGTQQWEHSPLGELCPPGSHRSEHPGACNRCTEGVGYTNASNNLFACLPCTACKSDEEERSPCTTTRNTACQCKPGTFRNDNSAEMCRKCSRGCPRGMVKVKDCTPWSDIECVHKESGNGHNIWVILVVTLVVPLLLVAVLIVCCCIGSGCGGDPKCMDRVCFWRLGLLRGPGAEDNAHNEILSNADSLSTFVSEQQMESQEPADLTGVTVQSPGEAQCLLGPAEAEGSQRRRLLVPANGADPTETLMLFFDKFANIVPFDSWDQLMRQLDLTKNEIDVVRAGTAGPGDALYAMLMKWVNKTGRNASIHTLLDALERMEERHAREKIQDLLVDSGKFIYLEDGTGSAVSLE
UniProt Q9NQ34: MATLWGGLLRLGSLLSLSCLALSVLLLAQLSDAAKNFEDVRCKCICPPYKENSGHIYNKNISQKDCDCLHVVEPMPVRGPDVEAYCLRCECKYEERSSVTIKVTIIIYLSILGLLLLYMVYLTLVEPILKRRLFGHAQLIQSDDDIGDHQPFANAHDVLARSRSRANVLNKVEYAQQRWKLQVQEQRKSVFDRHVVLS
UniProt Q96K49: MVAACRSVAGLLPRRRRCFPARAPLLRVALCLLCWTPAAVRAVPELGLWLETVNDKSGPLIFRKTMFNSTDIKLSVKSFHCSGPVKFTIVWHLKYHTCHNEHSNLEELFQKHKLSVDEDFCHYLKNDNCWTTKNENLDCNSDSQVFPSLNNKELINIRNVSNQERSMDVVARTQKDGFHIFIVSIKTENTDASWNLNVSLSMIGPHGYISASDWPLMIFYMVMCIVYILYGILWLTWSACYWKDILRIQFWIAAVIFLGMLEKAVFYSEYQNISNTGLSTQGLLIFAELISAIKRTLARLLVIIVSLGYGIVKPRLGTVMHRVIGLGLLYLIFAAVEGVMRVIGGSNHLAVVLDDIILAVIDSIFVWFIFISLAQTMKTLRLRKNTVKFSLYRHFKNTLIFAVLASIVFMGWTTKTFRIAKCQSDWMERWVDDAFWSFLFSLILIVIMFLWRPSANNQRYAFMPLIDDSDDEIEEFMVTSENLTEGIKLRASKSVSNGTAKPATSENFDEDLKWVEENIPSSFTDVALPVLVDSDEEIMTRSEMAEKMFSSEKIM
UniProt Q8NDZ6: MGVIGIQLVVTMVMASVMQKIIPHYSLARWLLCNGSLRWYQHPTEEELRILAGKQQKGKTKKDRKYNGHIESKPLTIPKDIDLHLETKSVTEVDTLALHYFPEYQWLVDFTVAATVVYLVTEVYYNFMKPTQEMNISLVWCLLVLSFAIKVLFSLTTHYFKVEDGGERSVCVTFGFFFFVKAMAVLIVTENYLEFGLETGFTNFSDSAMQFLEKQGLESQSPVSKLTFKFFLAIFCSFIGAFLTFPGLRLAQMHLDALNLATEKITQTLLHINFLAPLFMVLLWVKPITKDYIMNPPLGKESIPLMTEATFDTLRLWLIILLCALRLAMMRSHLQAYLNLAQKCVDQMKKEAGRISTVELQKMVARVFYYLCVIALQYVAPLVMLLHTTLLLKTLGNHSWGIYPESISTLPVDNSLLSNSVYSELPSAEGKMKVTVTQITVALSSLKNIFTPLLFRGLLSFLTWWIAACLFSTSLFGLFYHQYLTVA
UniProt Q9P0S9: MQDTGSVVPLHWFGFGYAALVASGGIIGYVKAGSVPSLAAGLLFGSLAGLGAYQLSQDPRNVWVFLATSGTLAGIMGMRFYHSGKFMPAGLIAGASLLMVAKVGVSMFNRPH
UniProt P21580: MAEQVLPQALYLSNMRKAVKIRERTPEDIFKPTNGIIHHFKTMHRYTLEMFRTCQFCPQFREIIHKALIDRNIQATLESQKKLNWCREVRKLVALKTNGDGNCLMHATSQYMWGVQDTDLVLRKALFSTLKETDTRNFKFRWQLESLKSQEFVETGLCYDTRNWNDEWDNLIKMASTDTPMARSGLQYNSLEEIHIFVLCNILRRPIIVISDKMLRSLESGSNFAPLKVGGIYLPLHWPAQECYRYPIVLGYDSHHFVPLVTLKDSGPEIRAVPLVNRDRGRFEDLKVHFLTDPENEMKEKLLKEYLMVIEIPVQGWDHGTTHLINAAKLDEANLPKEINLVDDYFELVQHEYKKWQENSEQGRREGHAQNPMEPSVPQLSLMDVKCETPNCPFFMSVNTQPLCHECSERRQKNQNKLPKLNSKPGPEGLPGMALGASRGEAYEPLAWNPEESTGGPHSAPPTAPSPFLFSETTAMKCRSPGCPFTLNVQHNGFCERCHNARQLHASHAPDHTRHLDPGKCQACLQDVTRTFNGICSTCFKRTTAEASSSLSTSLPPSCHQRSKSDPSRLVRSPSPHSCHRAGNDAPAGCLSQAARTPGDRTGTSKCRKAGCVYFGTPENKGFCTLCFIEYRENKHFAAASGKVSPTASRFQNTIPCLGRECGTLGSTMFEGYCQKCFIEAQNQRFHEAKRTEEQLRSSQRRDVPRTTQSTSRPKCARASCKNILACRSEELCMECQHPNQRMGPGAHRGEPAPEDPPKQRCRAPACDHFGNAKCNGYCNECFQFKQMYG
UniProt O14763, whole entry, looked up: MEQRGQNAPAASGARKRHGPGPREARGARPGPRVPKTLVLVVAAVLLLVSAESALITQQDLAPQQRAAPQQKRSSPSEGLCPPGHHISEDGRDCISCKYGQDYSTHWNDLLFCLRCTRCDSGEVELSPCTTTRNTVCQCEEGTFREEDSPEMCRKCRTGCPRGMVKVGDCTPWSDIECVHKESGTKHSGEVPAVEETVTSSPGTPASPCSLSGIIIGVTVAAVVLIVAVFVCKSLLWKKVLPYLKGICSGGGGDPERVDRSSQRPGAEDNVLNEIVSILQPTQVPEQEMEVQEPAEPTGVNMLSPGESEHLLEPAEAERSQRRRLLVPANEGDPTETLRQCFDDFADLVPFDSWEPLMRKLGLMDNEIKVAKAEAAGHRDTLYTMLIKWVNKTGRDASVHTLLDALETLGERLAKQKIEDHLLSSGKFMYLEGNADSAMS
UniProt Q8IY95: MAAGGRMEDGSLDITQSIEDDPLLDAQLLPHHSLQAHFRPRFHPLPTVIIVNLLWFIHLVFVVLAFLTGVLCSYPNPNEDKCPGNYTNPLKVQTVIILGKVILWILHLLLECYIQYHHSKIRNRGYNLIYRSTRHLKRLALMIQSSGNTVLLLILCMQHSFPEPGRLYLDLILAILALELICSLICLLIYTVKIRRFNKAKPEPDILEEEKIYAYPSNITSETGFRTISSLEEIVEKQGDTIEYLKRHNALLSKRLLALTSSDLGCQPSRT
UniProt Q96HV5: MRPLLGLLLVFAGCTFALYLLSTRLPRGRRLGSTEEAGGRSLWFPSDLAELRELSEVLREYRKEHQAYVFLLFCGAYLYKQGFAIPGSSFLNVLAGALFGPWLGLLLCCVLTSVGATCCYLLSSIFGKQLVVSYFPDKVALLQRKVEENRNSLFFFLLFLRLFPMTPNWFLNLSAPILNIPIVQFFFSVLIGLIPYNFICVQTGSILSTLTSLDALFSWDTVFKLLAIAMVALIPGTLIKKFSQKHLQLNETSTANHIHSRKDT

The other results are listed elsewhere or left out.

Compound in the test: C=CC(=O)N1CCC[C@@H](n2nc(-c3ccc(Oc4ccccc4)cc3)c3c(N)ncnc32)C1 [ibrutinib]
In words: log2 fold change, soluble protein after heating vs DMSO (PISA); higher = thermal stabilisation; K562 cells, 10 uM, 30 min; active = over 0.2 and 3.5 SD of the protein, either way, in both replicates (recomputed). In a few lines: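 For each measurement, 10 μM compound was applied for 30 min to K562 cells at 2×10^6 cells/mL. Aliquots were heated for 3 min across 48°C-58°C, pooled, and extracted in PBS with 0.5% NP-40 at 4°C; the supernatant after 21,000xg for 90 min was soluble protein. This was quantified by TMTpro 16plex LC-MS/MS with channel sums equalised, and thermal stability was reported relative to control samples from duplicates, on a log2 fold-change scale.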
On to TMEM134 (UniProt Q9H6X4), for which the log2 fold change is inactive: 0.009. The same measure for TMEM69 (UniProt Q5SWH9): inactive: 0.03.

Take TMEM177 (UniProt Q53S58): the log2 fold change is inactive: 0.079.

In the case of TMEM141 (UniProt Q96I45), the log2 fold change was inactive: -0.027. Next, TMEM63A (UniProt O94886): inactive: 0.072. The same measure for TMEM147 (UniProt Q9BVK8): inactive: 0.014; for TMC1 (UniProt Q8TDI8): inactive: -0.099.

Take TLR9 isoform 4 (UniProt Q9NR96): the log2 fold change was inactive: 0.071. The same measure for TMEM223 (UniProt A0PJW6): inactive: 0.006; for TMEM242 (UniProt Q9NWH2): inactive: 0.035; for TNFRSF10A (UniProt O00220): inactive: 0.034. As to TMEM9B (UniProt Q9NQ34), the log2 fold change was inactive: 0.038. Turning to TMEM268 isoform 3 (UniProt Q5VZI3), the log2 fold change is inactive: 0.036. The same measure for TMEM87B (UniProt Q96K49): inactive: -0.084; for TMEM161B (UniProt Q8NDZ6): inactive: -0.039; for TMEM14C (UniProt Q9P0S9): inactive: 0.102.

For TNFAIP3 (UniProt P21580), the log2 fold change is inactive: 0.167. Next, TNFRSF10B (UniProt O14763): inactive: -0.056.

Consider TM7SF3 (UniProt Q9NS93), for which the log2 fold change is inactive: 0.014.

TMEM192 (UniProt Q8IY95): the log2 fold change is inactive: -0.014.

TMEM41A (UniProt Q96HV5): the log2 fold change was inactive: -0.007. With TMEM123 (UniProt Q8N131), the log2 fold change is inactive: 0.041.
